Reference: article PMC6572767

Amino acid sequences for entries named in this document (tags omitted). Residues count along the entry.
UniProt P11362, residues 22-822: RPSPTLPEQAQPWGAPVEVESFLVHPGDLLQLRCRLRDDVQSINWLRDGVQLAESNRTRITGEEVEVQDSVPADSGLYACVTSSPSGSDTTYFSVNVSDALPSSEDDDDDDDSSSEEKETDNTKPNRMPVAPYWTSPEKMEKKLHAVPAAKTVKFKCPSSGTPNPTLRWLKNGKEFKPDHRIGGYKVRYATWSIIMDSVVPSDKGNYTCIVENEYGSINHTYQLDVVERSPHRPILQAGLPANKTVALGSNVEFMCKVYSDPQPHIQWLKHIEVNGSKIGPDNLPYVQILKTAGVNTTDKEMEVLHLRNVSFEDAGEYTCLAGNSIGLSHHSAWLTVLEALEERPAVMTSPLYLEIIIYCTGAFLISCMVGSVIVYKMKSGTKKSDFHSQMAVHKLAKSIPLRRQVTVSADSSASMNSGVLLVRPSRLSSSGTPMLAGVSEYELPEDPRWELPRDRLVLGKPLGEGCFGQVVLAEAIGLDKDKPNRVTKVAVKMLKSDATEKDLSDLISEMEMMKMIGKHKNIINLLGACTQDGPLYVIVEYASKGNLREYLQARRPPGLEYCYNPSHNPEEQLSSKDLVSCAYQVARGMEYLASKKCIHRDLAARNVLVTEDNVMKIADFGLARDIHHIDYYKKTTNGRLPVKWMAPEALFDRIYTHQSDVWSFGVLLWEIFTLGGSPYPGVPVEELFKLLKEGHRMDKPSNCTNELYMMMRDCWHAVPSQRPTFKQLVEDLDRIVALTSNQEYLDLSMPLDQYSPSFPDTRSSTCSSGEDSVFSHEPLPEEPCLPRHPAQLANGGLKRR
UniProt Q15418: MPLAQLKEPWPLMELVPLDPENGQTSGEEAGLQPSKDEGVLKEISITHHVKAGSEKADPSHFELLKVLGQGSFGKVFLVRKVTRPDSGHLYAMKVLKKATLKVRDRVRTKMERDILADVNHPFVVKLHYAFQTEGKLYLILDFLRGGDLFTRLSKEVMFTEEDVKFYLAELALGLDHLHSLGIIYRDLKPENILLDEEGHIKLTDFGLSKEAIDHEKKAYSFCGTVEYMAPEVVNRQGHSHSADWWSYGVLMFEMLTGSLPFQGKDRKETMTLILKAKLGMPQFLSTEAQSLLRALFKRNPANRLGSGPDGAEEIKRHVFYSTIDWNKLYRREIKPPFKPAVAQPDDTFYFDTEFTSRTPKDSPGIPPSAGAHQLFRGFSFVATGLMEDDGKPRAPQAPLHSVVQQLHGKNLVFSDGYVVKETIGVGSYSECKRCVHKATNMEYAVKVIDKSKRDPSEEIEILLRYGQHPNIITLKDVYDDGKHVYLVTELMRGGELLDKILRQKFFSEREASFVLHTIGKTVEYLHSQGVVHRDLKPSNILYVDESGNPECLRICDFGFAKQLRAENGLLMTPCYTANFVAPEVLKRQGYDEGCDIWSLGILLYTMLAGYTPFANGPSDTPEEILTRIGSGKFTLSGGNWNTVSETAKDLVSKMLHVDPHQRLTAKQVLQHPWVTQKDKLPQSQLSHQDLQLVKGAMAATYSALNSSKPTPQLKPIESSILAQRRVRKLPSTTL

Target: streptavidin-binding peptide (SBP)-tagged FGFR1 (UniProt P11362)
Experiment: affinity purification with mass spectrometry; SBP-FGFR1 from U2OS-SBP-R1 lysate held on Streptavidin Agarose overnight at 4 °C; cells serum starved 4 h, Pitstop2 30 μM 15 min, FGF1 100 ng/ml and heparin 10 U/ml 15 min; control U2OS-R1 cells (untagged FGFR1); 5 repeats

binding: binds
Molecule: RSK1 (Ribosomal S6-kinase) (from UniProt Q15418 1-735) (enzyme)

binding: binds
B1: EGF-like repeat and discoidin I-like domain-containing protein 3 (protein, UniProt O43854 24-480)
chain: DICDPNPCENGGICLPGLADGSFSCECPDGFTDPNCSSVVEVASDEEEPTSAGPCTPNPCHNGGTCEISEAYRGDTFIGYVCKCPRGFNGIHCQHNINECEVEPCKNGGICTDLVANYSCECPGEFMGRNCQYKCSGPLGIEGGIISNQQITASSTHRALFGLQKWYPYYARLNKKGLINAWTAAENDRWPWIQINLQRKMRVTGVITQGAKRIGSPEYIKSYKIAYSNDGKTWAMYKVKGTNEDMVFRGNIDNNTPYANSFTPPIKAQYVRLYPQVCRRHCTLRMELLGCELSGCSEPLGMKSGHIQDYQITASSIFRTLNMDMFTWEPRKARLDKQGKVNAWTSGHNDQSQWLQVDLLVPTKVTGIITQGAKDFGHVQFVGSYKLAYSNDGEHWTVYQDEKQRKDKVFQGNFDNDTHRKNVIDPPIYARHIRILPWSWYGRITLRSELLGCTEEE

No constants are given. Whether binding was seen depends on the method and setting. Binding seen in cells or lysates may run through a third protein. These calls come from enrichment with a bait or labelling near it, and not all partners need be listed. Each block holds one molecule with its values, some of them ahead of it.
